No constants are given. Whether binding was seen depends on the method and setting. Some results given as binding are weak or reduced against the parent protein; the word gives no strength.
T1: hypothetical protein SP_1876 (Streptococcus pneumoniae) (UniProt Q97NX5)
T1 sequence: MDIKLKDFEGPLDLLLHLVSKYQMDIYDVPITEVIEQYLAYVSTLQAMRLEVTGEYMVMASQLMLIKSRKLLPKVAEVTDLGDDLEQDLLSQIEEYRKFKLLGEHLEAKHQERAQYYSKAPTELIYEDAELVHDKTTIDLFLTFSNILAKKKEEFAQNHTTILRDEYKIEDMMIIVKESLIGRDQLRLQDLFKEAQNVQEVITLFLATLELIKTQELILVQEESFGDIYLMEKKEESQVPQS

B1: SP_1151, Exonuclease (protein, UniProt Q97QQ0 1-1091)
chain: MKLLYTDIRTSLTEILTREAEELVAAGKRVFYIAPNSLSFEKERAVLEYLSQQASFSITVTRFAQMARYLVLNDLPAKTTLDDIGLGLAFYKCLAELDPKDLRVYGAIKQDPQLIQQLIELYHEMTKSQMSFLDLENLTDEDKRADLLLIFEKVTAYLNQGQLAQESQLSHLIEAIENDKVSSDFNQIALVIDGFTRFSAEEERVVDLLHGKGVEIVIGAYASKKAYTSPFSEGNLYQASVKFLHHLASKYQTPAQDCSQTHEKMDSFDKASRLLESSYDFSELALDVDEKDRENLQIWSCLTQKEELELVARSIRQKLHENSDLSYKHFRILLGDVASYQLSLKTIFDQYQIPFYLGRSEAMAHHPLTQFVESILALKRYRFRQEDLINLLRTDLYTDLSQSDIDAFEQYIRYLGINGLPAFQQTFTKSHHGKFNLERLNVLRLRILAPLETLFASRKQKAEKLLQKWSVFLKEGAVTKQLQDLTTTLEAVEQERQAEVWKAFCHVLEQFATVFAGSQVSLEDFLALLHSGMSLSQYRTIPATVDTVLVQSYDLIAPLTADFVYAIGLTQDNLPKISQNTSLLTDEERQNLNQATEEGVQLLIASSENLKKNRYTMLSLVNSARKQLFLSAPSLFNESESKESAYLQELIHFGFRRREKRMNHKGLSKEDMGSYHSLLSSLVAYHQQGEMSDTEQDLTFVKVLSRVIGKKLDQQGLENPAIPTSPSSKTLAKDTLQALYPAKQEFYLSTSGLTEFYRNEYSYFLRYVLGLQEELRLHPDARSHGNFLHRIFERALQLPNEDSFDQRLEQAIQETSQEREFEAIYQESLEAQFTKEVLLDVARTTGHILRHNPAIETIKEEANFGGKDQAFIQLDNGRSVFVRGKVDRIDRLKANGAIGVVDYKSSLTQFQFPHFFNGLNSQLPTYLAALKREGEQNFFGAMYLEMAEPVQSLMAVKSLAGAVVEASKSMKYQGLFLEKESSYLGEFYNKNKANQLTDEEFQLLLDYNAYLYKKAAEKILAGRFAINPYTENGRSIAPYVQQHQAITGFEANYHLGQARFLEKLDLADGKRLVGEKLKQAWLEKIREELNR
B2: SP_1907, Chaperonin (protein, UniProt Q97NV3 1-94)
chain: MLKPLGDRVVLKIEEKEQTVGGFVLAGSAQEKTKTAQVVATGQGVRTLNGDLVAPSVKTGDRVLVEAHAGLDVKDGDEKYIIVGEANILAIIEE
B3: SP_1875, Segregation and condensation protein B (protein, UniProt Q97NX6 1-189)
chain: MSTLAKIEALLFVAGEDGIRVRQLAELLSLPPTGIQQSLGKLAQKYEKDPDSSLALIETSGAYRLVTKPQFAEILKEYSKAPINQSLSRAALETLSIIAYKQPITRIEIDAIRGVNSSGALAKLQAFDLIKEDGKKEVLGRPNLYVTTDYFLDYMGINHLEELPVIDELEIQAQESQLFGERIEEDENQ
B4: SP_0701, Orotidine 5′-phosphate decarboxylase (protein, UniProt P0CB75 1-233)
chain: MREHRPIIALDFPSFEAVKEFLALFPAEESLYLKVGMELYYAAGPEIVSYLKGLGHSVFLDLKLHDIPNTVKSAMKILSQLGVDMTNVHAAGGVEMMKAAREGLGSQAKLIAVTQLTSTSEAQMQEFQNIQTSLQESVIHYAKKTAEAGLDGVVCSAQEVQVIKQATNPDFICLTPGIRPAGVAVGDQKRVMTPADAYQIGSDYIVVGRPITQAEDPVAAYHAIKDEWTQDWN
B5: SP_0437, Glutamyl-tRNA(Gln) amidotransferase (protein, UniProt Q97SE6 1-488)
chain: MTFNNKTIEELHNLLVSKEISATELTQATLENIKSREEALNSFVTIAEEQALVQAKAIDEAGIDADNVLSGIPLAVKDNISTDGILTTAASKMLYNYEPIFDATAVANAKTKGMIVVGKTNMDEFAMGGSGETSHYGATKNAWNHSKVPGGSSSGSAAAVASGQVRLSLGSDTGGSIRQPAAFNGIVGLKPTYGTVSRFGLIAFGSSLDQIGPFAPTVKENALLLNAIASEDAKDSTSAPVRIADFTSKIGQDIKGMKIALPKEYLGEGIDPEVKETILNAAKHFEKLGAIVEEVSLPHSKYGVAVYYIIASSEASSNLQRFDGIRYGYRAEDATNLDEIYVNSRSQGFGEEVKRRIMLGTFSLSSGYYDAYYKKAGQVRTLIIQDFEKVFADYDLILGPTAPSVAYDLDSLNHDPVAMYLADLLTIPVNLAGLPGISIPAGFSQGLPVGLQLIGPKYSEETIYQAAAAFEATTDYHKQQPVIFGGDN

target: T1, hypothetical protein SP_1876 (Streptococcus pneumoniae); assay: two-hybrid; yeast two-hybrid screens of S. pneumoniae ORFs: Gal4-based (individual baits mated with a pooled prey library, selection on SD -Leu -Trp -His with 0.1 mM 3-AT, 30°C) and LexA-based (hypothetical-protein BD clones against an AD array, two-phased pooled mating); which system found a given pair is not given

| binding | Binder |
| --- | --- |
| binds | B1 |
| binds | B2 |
| binds | B3 |
| binds | B4 |
| binds | B5 |
